No constants are given. Whether binding was seen depends on the method and setting. Binding seen in cells or lysates may run through a third protein. Some results given as binding are weak or reduced against the parent protein; the word gives no strength. Tags and fused reporters may be left off the sequences shown.
T1: GST-Galectin-8 (human)
T1 sequence: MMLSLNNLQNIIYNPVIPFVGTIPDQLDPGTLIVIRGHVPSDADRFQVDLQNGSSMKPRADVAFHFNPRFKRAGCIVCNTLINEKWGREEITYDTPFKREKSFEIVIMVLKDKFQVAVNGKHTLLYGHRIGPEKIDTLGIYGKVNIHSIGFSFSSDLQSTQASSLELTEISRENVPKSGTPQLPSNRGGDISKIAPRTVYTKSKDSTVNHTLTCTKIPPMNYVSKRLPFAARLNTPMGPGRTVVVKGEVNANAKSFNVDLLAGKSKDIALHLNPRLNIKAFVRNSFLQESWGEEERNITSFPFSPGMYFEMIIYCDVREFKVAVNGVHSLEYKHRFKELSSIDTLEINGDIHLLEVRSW

Protein sequences, listed by entry. Tags and fused reporters are not part of them. Lines headed by an entry give the natural chain unless they say otherwise; changes in a name come on top.
UniProt P17931: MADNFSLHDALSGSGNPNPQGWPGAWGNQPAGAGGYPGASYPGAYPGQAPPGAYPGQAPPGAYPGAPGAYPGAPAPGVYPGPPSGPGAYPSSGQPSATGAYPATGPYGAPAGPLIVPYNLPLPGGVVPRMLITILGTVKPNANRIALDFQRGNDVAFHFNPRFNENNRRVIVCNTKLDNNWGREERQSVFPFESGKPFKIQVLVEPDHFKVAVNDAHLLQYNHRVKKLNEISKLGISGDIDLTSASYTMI

B1: 35S-Myc-HA-TRIM49 (in vitro translated) (protein, UniProt P0CI25 1-452, looked up, not shown: small tags and cut ends)
chain: MNSGILQVFQGELICPLCMNYFIDPVTIDCGHSFCRPCFYLNWQDIPFLVQCSECTKSTEQINLKTNIHLKKMASLARKVSLWLFLSSEEQMCGTHRETKKIFCEVDRSLLCLLCSSSQEHRYHRHRPIEWAAEEHREKLLQKMQSLWEKACENHRNLNVETTRTRCWKDYVNLRLEAIRAEYQKMPAFHHEEEKHNLEMLKKKGKEIFHRLHLSKAKMAHRMEILRGMYEELNEMCHKPDVELLQAFGDILHRSESVLLHMPQPLNPELSAGPITGLRDRLNQFRVHITLHHEEANNDIFLYEILRSMCIGCDHQDVPYFTATPRSFLAWGVQTFTSGKYYWEVHVGDSWNWAFGVCNMYRKEKNQNEKIDGKAGLFLLGCVKNDIQCSLFTTSPLMLQYIPKPTSRVGLFLDCEAKTVSFVDVNQSSLIYTIPNCSFSPPLRPIFCCIHF
modifications: [35S]-methionine radiolabel
B2: 35S-Myc-HA-TRIM23 (in vitro translated) (protein, UniProt P36406 1-574, looked up, not shown: small tags and cut ends)
chain: MATLVVNKLGAGVDSGRQGSRGTAVVKVLECGVCEDVFSLQGDKVPRLLLCGHTVCHDCLTRLPLHGRAIRCPFDRQVTDLGDSGVWGLKKNFALLELLERLQNGPIGQYGAAEESIGISGESIIRCDEDEAHLASVYCTVCATHLCSECSQVTHSTKTLAKHRRVPLADKPHEKTMCSQHQVHAIEFVCLEEGCQTSPLMCCVCKEYGKHQGHKHSVLEPEANQIRASILDMAHCIRTFTEEISDYSRKLVGIVQHIEGGEQIVEDGIGMAHTEHVPGTAENARSCIRAYFYDLHETLCRQEEMALSVVDAHVREKLIWLRQQQEDMTILLSEVSAACLHCEKTLQQDDCRVVLAKQEITRLLETLQKQQQQFTEVADHIQLDASIPVTFTKDNRVHIGPKMEIRVVTLGLDGAGKTTILFKLKQDEFMQPIPTIGFNVETVEYKNLKFTIWDVGGKHKLRPLWKHYYLNTQAVVFVVDSSHRDRISEAHSELAKLLTEKELRDALLLIFANKQDVAGALSVEEITELLSLHKLCCGRSWYIQGCDARSGMGLYEGLDWLSRQLVAAGVLDVA
modifications: [35S]-methionine radiolabel
B3: 35S-Myc-HA-TRIM20 (in vitro translated) (protein, not shown: small tags and cut ends)
chain: MAKTPSDHLLSTLEELVPYDFEKFKFKLQNTSVQKEHSRIPRSQIQRARPVKMATLLVTYYGEEYAVQLTLQVLRAINQRLLAEELHRAAIQEYSTQENGTDDSAASSSLGENKPRSLKTPDHPEGNEGNGPRPYGGGAASLRCSQPEAGRGLSRKPLSKRREKASEGLDAQGKPRTRSPALPGGRSPGPCRALEGGQAEVRLRRNASSAGRLQGLAGGAPGQKECRPFEVYLPSGKMRPRSLEVTISTGEKAPANPEILLTLEEKTAANLDSATEPRARPTPDGGASADLKEGPGNPEHSVTGRPPDTAASPRCHAQEGDPVDGTCVRDSCSFPEAVSGHPQASGSRSPGCPRCQDSHERKSPGSLSPQPLPQCKRHLKQVQLLFCEDHDEPICLICSLSQEHQGHRVRPIEEVALEHKKKIQKQLEHLKKLRKSGEEQRSYGEEKAVSFLKQTEALKQRVQRKLEQVYYFLEQQEHFFVASLEDVGQMVGQIRKAYDTRVSQDIALLDALIGELEAKECQSEWELLQDIGDILHRAKTVPVPEKWTTPQEIKQKIQLLHQKSEFVEKSTKYFSETLRSEMEMFNVPELIGAQAHAVNVILDAETAYPNLIFSDDLKSVRLGNKWERLPDGPQRFDSCIIVLGSPSFLSGRRYWEVEVGDKTAWILGACKTSISRKGNMTLSPENGYWVVIMMKENEYQASSVPPTRLLIKEPPKRVGIFVDYRVGSISFYNVTARSHIYTFASCSFSGPLQPIFSPGTRDGGKNTAPLTICPVGGQGPD
modifications: [35S]-methionine radiolabel
B4: 35S-Myc-HA-TRIM17 (in vitro translated) (protein, UniProt Q9Y577 1-477, looked up, not shown: small tags and cut ends)
chain: MEAVELARKLQEEATCSICLDYFTDPVMTTCGHNFCRACIQLSWEKARGKKGRRKRKGSFPCPECREMSPQRNLLPNRLLTKVAEMAQQHPGLQKQDLCQEHHEPLKLFCQKDQSPICVVCRESREHRLHRVLPAEEAVQGYKLKLEEDMEYLREQITRTGNLQAREEQSLAEWQGKVKERRERIVLEFEKMNLYLVEEEQRLLQALETEEEETASRLRESVACLDRQGHSLELLLLQLEERSTQGPLQMLQDMKEPLSRKNNVSVQCPEVAPPTRPRTVCRVPGQIEVLRGFLEDVVPDATSAYPYLLLYESRQRRYLGSSPEGSGFCSKDRFVAYPCAVGQTAFSSGRHYWEVGMNITGDALWALGVCRDNVSRKDRVPKCPENGFWVVQLSKGTKYLSTFSALTPVMLMEPPSHMGIFLDFEAGEVSFYSVSDGSHLHTYSQATFPGPLQPFFCLGAPKSGQMVISTVTMWVKG
modifications: [35S]-methionine radiolabel

The binders below were run against GST-Galectin-3 (human) (UniProt P17931) (assay: GST pull-down of in vitro translated 35S-labelled Myc-HA-TRIM).

| binding | Binder |
| --- | --- |
| binds | B1 |
| binds | B2 |
| binds | B3 |
| binds | B4 |

The binders below were run against T1, GST-Galectin-8 (human) in the same assay as above.

| binding | Binder |
| --- | --- |
| binds | B1 |
| binds | B2 |
| binds | B3 |
| binds | B4 |

Reference: patent US20240261378A1
